From the supplement of paper PMC10849652
Some of the results follow.

Amino acid sequences for entries named in this document (tags omitted). A change or cut given only in a name is not applied to a line headed by its entry.
UniProt Q70J99: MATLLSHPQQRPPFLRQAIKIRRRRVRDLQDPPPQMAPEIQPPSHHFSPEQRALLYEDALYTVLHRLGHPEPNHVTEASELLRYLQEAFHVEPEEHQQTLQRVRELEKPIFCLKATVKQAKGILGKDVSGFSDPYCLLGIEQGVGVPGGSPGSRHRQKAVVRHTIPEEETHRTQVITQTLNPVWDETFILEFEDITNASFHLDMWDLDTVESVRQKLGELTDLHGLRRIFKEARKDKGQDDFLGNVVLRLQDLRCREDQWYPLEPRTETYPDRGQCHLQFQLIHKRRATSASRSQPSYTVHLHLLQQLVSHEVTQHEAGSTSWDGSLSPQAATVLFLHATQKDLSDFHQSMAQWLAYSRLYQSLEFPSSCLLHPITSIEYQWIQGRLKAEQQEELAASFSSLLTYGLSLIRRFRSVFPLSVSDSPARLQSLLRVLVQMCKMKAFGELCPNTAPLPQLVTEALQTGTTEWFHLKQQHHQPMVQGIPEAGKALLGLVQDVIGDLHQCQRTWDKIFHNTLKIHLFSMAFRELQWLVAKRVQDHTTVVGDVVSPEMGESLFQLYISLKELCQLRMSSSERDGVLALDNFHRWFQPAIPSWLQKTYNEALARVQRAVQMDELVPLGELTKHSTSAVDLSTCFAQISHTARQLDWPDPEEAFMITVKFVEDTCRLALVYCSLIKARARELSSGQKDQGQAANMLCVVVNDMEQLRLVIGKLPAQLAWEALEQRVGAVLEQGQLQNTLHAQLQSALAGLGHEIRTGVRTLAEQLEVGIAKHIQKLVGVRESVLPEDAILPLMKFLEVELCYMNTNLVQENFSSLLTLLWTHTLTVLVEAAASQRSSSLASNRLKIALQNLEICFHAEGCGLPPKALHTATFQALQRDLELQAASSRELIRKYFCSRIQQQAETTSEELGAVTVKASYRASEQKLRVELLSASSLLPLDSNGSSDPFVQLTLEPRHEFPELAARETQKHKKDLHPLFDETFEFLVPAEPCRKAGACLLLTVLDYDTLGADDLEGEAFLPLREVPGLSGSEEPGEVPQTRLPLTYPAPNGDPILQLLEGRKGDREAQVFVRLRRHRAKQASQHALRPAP
UniProt O14949: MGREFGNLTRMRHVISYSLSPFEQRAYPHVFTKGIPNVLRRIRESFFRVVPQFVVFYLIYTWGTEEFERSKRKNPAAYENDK
UniProt P40337, whole entry, looked up: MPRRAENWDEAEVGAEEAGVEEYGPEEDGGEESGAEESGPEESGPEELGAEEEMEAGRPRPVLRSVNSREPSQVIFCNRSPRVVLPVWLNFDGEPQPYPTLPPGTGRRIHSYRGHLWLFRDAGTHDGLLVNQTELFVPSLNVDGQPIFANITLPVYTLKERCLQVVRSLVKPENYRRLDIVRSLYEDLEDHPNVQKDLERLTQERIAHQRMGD
UniProt Q14694, whole entry, looked up: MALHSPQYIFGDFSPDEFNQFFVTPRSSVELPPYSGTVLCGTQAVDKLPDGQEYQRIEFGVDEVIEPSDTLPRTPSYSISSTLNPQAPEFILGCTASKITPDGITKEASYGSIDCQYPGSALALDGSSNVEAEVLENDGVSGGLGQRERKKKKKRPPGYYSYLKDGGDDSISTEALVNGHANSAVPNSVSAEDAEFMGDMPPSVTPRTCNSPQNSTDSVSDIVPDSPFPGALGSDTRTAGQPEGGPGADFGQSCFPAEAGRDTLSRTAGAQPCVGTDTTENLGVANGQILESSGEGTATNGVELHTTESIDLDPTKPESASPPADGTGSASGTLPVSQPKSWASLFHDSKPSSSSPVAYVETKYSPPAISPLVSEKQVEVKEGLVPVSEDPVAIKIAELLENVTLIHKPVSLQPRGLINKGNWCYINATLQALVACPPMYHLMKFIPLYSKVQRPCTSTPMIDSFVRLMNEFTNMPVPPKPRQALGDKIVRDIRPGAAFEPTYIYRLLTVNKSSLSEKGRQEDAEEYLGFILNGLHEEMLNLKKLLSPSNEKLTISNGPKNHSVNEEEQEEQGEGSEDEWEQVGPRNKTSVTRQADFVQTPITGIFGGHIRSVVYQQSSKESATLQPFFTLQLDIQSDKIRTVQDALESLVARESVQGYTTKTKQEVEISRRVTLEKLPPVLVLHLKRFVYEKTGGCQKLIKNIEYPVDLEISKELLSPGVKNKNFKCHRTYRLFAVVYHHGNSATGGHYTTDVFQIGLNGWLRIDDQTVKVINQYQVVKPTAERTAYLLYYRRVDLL
UniProt Q9UPT9: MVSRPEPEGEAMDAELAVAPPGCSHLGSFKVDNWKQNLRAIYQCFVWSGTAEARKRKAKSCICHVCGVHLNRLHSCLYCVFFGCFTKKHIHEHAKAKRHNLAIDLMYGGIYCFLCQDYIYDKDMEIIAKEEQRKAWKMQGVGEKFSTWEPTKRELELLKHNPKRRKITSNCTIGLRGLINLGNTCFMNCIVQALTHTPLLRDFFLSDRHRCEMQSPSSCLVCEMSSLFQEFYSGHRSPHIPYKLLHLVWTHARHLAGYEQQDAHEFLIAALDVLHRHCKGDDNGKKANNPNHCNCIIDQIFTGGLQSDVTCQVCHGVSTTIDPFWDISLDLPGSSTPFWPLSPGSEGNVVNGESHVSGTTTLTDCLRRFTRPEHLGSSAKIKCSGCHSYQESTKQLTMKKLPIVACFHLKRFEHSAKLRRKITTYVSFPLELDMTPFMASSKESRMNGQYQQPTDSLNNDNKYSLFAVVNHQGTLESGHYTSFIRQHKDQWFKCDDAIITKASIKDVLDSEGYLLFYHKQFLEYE
UniProt P40818: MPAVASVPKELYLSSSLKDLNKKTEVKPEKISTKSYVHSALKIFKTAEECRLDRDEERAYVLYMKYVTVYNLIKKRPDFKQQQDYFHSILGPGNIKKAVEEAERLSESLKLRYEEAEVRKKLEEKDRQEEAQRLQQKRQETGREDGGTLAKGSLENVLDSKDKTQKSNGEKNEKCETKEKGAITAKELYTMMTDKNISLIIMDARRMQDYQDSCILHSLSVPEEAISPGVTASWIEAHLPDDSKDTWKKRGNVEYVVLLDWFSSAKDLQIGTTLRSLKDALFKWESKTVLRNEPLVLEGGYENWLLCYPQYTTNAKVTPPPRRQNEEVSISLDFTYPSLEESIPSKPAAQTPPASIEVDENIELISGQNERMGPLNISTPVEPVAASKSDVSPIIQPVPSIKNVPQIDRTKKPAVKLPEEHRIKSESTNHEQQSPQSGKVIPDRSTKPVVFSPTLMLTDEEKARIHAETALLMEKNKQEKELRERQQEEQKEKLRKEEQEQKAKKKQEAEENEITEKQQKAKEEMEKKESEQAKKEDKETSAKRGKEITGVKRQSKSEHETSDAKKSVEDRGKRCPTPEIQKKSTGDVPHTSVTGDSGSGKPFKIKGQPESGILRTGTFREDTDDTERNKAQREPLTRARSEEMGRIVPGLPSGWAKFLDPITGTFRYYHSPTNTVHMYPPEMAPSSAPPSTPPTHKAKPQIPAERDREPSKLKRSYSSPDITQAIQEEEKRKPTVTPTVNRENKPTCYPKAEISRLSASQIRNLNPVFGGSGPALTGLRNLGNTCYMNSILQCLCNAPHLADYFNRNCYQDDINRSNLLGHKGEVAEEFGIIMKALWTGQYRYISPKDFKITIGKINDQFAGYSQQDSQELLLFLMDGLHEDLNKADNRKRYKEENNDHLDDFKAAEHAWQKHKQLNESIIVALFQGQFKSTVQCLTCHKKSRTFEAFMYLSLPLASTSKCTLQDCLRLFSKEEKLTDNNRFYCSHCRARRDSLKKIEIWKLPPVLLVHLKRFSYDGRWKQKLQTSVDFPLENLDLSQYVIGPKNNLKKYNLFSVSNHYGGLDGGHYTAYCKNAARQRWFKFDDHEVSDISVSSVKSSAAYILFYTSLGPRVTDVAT
UniProt Q9NYU1: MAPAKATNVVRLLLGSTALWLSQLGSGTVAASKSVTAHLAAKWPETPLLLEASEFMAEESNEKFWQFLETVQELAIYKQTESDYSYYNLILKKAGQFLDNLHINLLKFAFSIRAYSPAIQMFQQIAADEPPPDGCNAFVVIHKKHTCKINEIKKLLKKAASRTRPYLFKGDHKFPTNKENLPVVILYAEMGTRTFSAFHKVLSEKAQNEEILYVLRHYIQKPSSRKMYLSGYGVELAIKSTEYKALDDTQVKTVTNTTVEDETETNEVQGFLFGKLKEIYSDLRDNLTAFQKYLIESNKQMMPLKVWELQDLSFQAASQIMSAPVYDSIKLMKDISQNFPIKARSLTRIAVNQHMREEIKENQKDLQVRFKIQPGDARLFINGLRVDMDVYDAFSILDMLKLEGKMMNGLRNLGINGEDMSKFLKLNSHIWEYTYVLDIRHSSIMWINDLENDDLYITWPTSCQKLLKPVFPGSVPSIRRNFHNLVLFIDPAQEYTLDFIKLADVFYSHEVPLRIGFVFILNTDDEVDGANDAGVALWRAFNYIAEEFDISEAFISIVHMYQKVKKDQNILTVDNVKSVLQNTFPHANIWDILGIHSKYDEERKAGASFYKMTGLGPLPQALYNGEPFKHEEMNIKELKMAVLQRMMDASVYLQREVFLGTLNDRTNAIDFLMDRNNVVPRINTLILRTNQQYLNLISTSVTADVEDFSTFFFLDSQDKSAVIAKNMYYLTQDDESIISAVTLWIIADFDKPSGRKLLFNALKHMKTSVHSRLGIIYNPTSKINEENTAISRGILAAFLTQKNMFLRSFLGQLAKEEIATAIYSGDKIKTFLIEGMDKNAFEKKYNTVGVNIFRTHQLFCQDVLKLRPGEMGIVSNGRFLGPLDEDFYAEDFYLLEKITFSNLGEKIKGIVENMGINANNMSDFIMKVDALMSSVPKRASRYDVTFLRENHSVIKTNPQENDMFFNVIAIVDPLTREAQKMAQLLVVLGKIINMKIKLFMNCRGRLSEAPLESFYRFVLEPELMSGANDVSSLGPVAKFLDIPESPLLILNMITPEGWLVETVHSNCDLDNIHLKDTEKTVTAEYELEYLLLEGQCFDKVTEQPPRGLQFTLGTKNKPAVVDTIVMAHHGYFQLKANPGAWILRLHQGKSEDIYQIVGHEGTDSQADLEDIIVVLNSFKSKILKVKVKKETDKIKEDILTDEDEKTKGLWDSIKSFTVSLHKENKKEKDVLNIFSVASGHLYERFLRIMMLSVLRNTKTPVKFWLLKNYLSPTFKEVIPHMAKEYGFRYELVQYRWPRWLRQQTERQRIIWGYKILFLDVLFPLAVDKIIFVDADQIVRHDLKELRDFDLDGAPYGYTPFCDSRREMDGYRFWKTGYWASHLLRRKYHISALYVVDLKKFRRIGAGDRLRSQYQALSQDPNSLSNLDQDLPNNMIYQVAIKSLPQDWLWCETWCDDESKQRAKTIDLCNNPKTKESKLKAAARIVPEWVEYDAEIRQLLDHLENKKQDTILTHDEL
UniProt Q9UDW1: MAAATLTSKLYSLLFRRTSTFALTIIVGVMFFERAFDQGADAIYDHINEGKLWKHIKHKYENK
UniProt Q6PHR2: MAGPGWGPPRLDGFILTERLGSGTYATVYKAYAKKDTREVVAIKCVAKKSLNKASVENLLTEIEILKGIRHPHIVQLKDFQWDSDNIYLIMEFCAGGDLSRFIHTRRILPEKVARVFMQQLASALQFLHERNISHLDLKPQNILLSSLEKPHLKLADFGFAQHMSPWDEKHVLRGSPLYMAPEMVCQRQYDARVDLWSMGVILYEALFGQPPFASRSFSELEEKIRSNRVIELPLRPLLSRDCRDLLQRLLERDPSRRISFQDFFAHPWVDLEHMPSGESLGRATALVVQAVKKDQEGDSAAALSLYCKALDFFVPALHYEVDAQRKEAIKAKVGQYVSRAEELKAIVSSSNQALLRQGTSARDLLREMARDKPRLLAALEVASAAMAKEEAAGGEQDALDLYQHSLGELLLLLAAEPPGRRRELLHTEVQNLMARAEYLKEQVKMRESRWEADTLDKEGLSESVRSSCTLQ
UniProt Q8NBZ7: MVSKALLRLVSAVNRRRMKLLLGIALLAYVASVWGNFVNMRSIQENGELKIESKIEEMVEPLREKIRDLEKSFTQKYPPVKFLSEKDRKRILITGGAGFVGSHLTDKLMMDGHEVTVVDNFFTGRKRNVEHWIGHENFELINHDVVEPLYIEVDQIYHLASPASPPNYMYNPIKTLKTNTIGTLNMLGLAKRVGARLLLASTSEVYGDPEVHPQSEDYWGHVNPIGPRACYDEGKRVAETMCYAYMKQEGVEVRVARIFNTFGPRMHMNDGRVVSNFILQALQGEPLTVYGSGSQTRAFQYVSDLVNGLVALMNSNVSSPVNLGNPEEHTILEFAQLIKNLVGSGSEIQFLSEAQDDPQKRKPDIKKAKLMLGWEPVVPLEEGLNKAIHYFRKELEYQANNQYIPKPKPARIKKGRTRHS

Columns and labels:
Assay in all cases: log2 fold change, soluble protein after heating vs DMSO (PISA); higher = thermal stabilisation; K562 lysate, 10 uM; active = over 0.2 and 3.5 SD of the protein, either way, in both replicates (recomputed)
vemurafenib = compound: CCCS(=O)(=O)Nc1ccc(F)c(C(=O)c2c[nH]c3ncc(-c4ccc(Cl)cc4)cc23)c1F [vemurafenib]
How it was run: (§1)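 The values are log-two fold changes in thermal stability compared with solvent controls and come from duplicates. They were obtained by TMTpro 16plex LC-MS/MS, with channel sums equalised, on the supernatant after 21,000xg for 90 min. That supernatant came from crude K562 extract at 1 mg/mL protein treated with 10 μM compound for 30 min, heated for 3 min across 48°C-58°C, pooled and brought to 0.5% NP-40 at 4°C.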

[1] = compound: CCCS(=O)(=O)Nc1ccc(F)c(C(=O)c2c[nH]c3ncc(Cl)cc23)c1F
How it was run: as §1

barasertib = compound: CCN(CCCOc1ccc2c(Nc3cc(CC(=O)Nc4cccc(F)c4)[nH]n3)ncnc2c1)CCOP(=O)(O)O [barasertib]
How it was run: as §1

[2] = compound: CC[C@@H]1C(=O)N(C)c2cnc(Nc3ccc(C(=O)NC4CCN(C)CC4)cc3OC)nc2N1C1CCCC1
How it was run: as §1

volasertib = compound: CC[C@@H]1C(=O)N(C)c2cnc(Nc3ccc(C(=O)N[C@H]4CC[C@H](N5CCN(CC6CC6)CC5)CC4)cc3OC)nc2N1C(C)C [volasertib]
How it was run: as §1

[3] = compound: CCn1c(C(=O)N(C2CC2)C2CC2)cc2c3c(ncn3C)c(Nc3cc(C)n(C)n3)nc21
How it was run: as §1

[4] = compound: CCn1cc(-c2ccnc3[nH]c(-c4cccc(CN(C)C)c4)cc23)c(-c2ccc(NC(=O)N(C)C)cc2)n1
How it was run: as §1

[5] = compound: CN1CCC(CNc2ccc3ncc(-c4cccc(OC(F)(F)F)c4)n3n2)CC1
How it was run: as §1

saracatinib = compound: CN1CCN(CCOc2cc(OC3CCOCC3)c3c(Nc4c(Cl)ccc5c4OCO5)ncnc3c2)CC1 [saracatinib]
How it was run: as §1

sotrastaurin = compound: CN1CCN(c2nc(C3=C(c4c[nH]c5ccccc45)C(=O)NC3=O)c3ccccc3n2)CC1 [sotrastaurin]
How it was run: as §1

alvocidib = compound: CN1CC[C@H](c2c(O)cc(O)c3c(=O)cc(-c4ccccc4Cl)oc23)[C@H](O)C1 [alvocidib]
How it was run: as §1

Tubastatin A = compound: CN1CCc2c(c3ccccc3n2Cc2ccc(C(=O)NO)cc2)C1 [Tubastatin A]
How it was run: as §1

[6] = compound: CNC(=O)C1=CC=CC=C1NC2=NC(=NC=C2Cl)NC3=C(C=C(C=C3)N4CCOCC4)OC
How it was run: as §1

defactinib = compound: CNC(=O)c1ccc(Nc2ncc(C(F)(F)F)c(NCc3nccnc3N(C)S(C)(=O)=O)n2)cc1 [defactinib]
How it was run: as §1

[7] = compound: CNc1nc(-c2ccc3c(N)n[nH]c3c2)cc(N2C[C@@H](C(=O)NC3CCCCC3)CC[C@H]2C)n1
How it was run: as §1

encorafenib = compound: COC(=O)N[C@@H](C)CNc1nccc(-c2cn(C(C)C)nc2-c2cc(Cl)cc(NS(C)(=O)=O)c2F)n1 [encorafenib]
How it was run: as §1

[8] = compound: COC(=O)[C@H](CCSC)NC(=O)C1=C(C=C(C=C1)NC[C@H](CS)N)C2=CC=CC=C2
How it was run: as §1

alisertib = compound: COc1cc(Nc2ncc3c(n2)-c2ccc(Cl)cc2C(c2c(F)cccc2OC)=NC3)ccc1C(=O)O [alisertib]
How it was run: as §1

[9] = compound: COc1cc2nc(-c3cc(F)ccc3O)nc(N[C@@H]3CNC[C@H]3C(C)(C)O)c2cc1OC
How it was run: as §1

gefitinib = compound: COc1cc2ncnc(Nc3ccc(F)c(Cl)c3)c2cc1OCCCN1CCOCC1 [gefitinib]
How it was run: as §1

Target | log2 fold change (vemurafenib) | log2 fold change [1] | log2 fold change (barasertib) | log2 fold change [2] | log2 fold change (volasertib) | log2 fold change [3] | log2 fold change [4] | log2 fold change [5] | log2 fold change (saracatinib) | log2 fold change (sotrastaurin) | log2 fold change (alvocidib) | log2 fold change (Tubastatin A) | log2 fold change [6] | log2 fold change (defactinib) | log2 fold change [7] | log2 fold change (encorafenib) | log2 fold change [8] | log2 fold change (alisertib) | log2 fold change [9] | log2 fold change (gefitinib)
UNC13D (UniProt Q70J99) | inactive: 0.039 | inactive: 0.027 | inactive: 0.024 | inactive: -0.073 | inactive: -0.083 | inactive: 0.012 | inactive: 0.026 | inactive: -0.015 | inactive: 0.05 | inactive: -0.022 | inactive: 0.015 | inactive: -0.117 | inactive: 0.014 | inactive: 0.026 | inactive: -0.035 | inactive: 0.059 | inactive: 0.054 | inactive: -0.005 | inactive: 0.001 | inactive: -0.034
UQCRQ (UniProt O14949) | inactive: -0.053 | inactive: 0.039 | inactive: -0.061 | inactive: -0.004 | inactive: 0.013 | inactive: 0.047 | inactive: 0.219 | inactive: -0.09 | inactive: -0.036 | inactive: 0.007 | inactive: 0 | inactive: 0.009 | inactive: -0.013 | inactive: 0.014 | inactive: -0.026 | inactive: 0.014 | inactive: 0.004 | inactive: 0.022 | inactive: 0.002 | inactive: 0.01
VHL (UniProt P40337) | inactive: 0.027 |  | inactive: -0.005 | inactive: -0.065 |  | inactive: -0.054 | inactive: 0.11 | inactive: -0.086 | inactive: 0.019 | inactive: -0.038 | inactive: -0.06 | inactive: -0.117 | inactive: -0.009 | inactive: -0.034 | inactive: -0.047 | inactive: 0.143 | inactive: -0.047 | inactive: 0.05 |  | inactive: -0.029
UROD (UniProt H0Y5R6) | inactive: 0.314 | inactive: 0.127 | inactive: -0.493 | inactive: -0.007 | inactive: -0.047 | inactive: 0.12 |  |  |  |  |  | inactive: 0.218 |  | inactive: -0.316 |  | inactive: -0.103 | inactive: -0.06 |  | inactive: -0.025 | 
UNKL (UniProt E9PDK2) | inactive: -0.118 |  | inactive: 0.047 | inactive: -0.075 |  |  |  |  | inactive: 0.002 | inactive: -0.05 |  |  |  | inactive: -0.008 | inactive: -0.042 | inactive: 0.044 | inactive: 0.106 |  |  | 
USP10 isoform 2 (UniProt Q14694) | inactive: 0.021 | inactive: 0.013 | inactive: 0.002 | inactive: -0.005 | inactive: -0.039 | inactive: 0.013 | inactive: -0.079 | inactive: 0 | inactive: 0.005 | inactive: 0.008 | inactive: 0.006 | inactive: -0.118 | inactive: 0.015 | inactive: 0.017 | inactive: 0.021 | inactive: 0.019 | inactive: 0.04 | inactive: 0.012 | inactive: -0.009 | inactive: -0.018
VCL (UniProt P18206) | inactive: -0.009 | inactive: -0.003 | inactive: -0.019 | inactive: -0.006 | inactive: 0.024 | inactive: -0.022 | inactive: -0.107 | inactive: 0.05 | inactive: 0.012 | inactive: -0.005 | inactive: -0.023 | inactive: 0.052 | inactive: -0.019 | inactive: -0.005 | inactive: 0.022 | inactive: 0 | inactive: -0.036 | inactive: 0.004 | inactive: 0.004 | inactive: 0.004
USP22 (UniProt Q9UPT9) | inactive: -0.019 |  | inactive: 0.008 | inactive: 0.026 |  | inactive: 0.034 | inactive: 0.031 | inactive: 0 | inactive: -0.026 | inactive: 0.018 | inactive: 0.102 | inactive: -0.044 | inactive: 0.034 | inactive: 0.017 | inactive: -0.027 | inactive: -0.007 | inactive: 0.055 | inactive: 0.02 |  | inactive: -0.011
URB2 (UniProt Q14146) | inactive: 0.017 | inactive: 0.056 |  | inactive: -0.08 | inactive: -0.048 | inactive: 0.052 | inactive: 0.014 | inactive: 0 | inactive: -0.013 | inactive: 0.021 | inactive: -0.23 | inactive: -0.12 |  | inactive: 0.053 | inactive: -0.052 | inactive: 0.135 | inactive: -0.295 | inactive: 0.085 | inactive: 0.021 | inactive: -0.181
USP8 (UniProt P40818) | inactive: 0 | inactive: 0.015 | inactive: 0.001 | inactive: -0.008 | inactive: -0.05 | inactive: 0.033 | inactive: -0.002 | inactive: -0.063 | inactive: -0.006 | inactive: -0.021 | inactive: 0.023 | inactive: -0.018 | inactive: 0.014 | inactive: 0.02 | inactive: 0.005 | inactive: 0.004 | inactive: 0.102 | inactive: -0.011 | inactive: 0.002 | inactive: 0.015
URB1 (UniProt O60287) | inactive: 0.094 | inactive: -0.046 |  | inactive: -0.038 | inactive: 0.211 | inactive: 0.012 | inactive: -0.353 | inactive: 0.013 | inactive: 0.114 | inactive: 0.036 | inactive: -0.195 | inactive: -0.068 | inactive: 0.069 | inactive: -0.051 | inactive: 0.034 | inactive: 0.04 | inactive: -0.071 | inactive: 0.07 | inactive: -0.276 | inactive: -0.081
UGGT2 (UniProt Q9NYU1) | inactive: -0.144 | inactive: -0.011 | inactive: -0.099 | inactive: 0.046 | inactive: -0.025 | inactive: 0.008 | inactive: 0.057 | inactive: 0.018 | inactive: 0.021 | inactive: 0.08 | inactive: 0.01 | inactive: 0.004 | inactive: 0.033 | inactive: -0.025 | inactive: 0.01 | inactive: 0.019 | inactive: 0 | inactive: -0.019 | inactive: 0.028 | inactive: 0.017
USP12 (UniProt O75317) | inactive: 0.131 | inactive: 0.075 |  | inactive: 0.024 | inactive: -0.003 | inactive: 0.076 | inactive: -0.056 | inactive: -0.008 |  | inactive: 0.05 | inactive: -0.127 | inactive: 0.037 | inactive: 0.07 | inactive: -0.13 |  | inactive: 0.111 | inactive: -0.046 | inactive: 0.13 | inactive: 0.028 | inactive: 0.155
UQCR10 (UniProt Q9UDW1) | inactive: -0.043 | inactive: -0.002 |  | inactive: 0.005 | inactive: 0.057 | inactive: 0.053 | inactive: -0.091 | inactive: 0.167 | inactive: 0.042 | inactive: 0.06 | inactive: -0.004 | inactive: -0.062 | inactive: -0.016 | inactive: 0.08 | inactive: 0.039 | inactive: 0.051 | inactive: -0.057 | inactive: -0.024 | inactive: 0.019 | inactive: -0.016
ULK3 isoform 4 (UniProt Q6PHR2) | inactive: 0.022 | inactive: -0.042 | inactive: 0.001 | inactive: -0.196 | inactive: -0.139 |  | active: -0.634 | inactive: -0.285 | inactive: 0.18 | inactive: -0.077 | inactive: -0.014 |  | inactive: 0.004 | inactive: 0.039 | inactive: 0.016 | inactive: -0.089 | inactive: -0.061 |  | inactive: 0.089 | 
UXS1 isoform 2 (UniProt Q8NBZ7) | inactive: 0.005 | inactive: 0.053 | inactive: -0.092 | inactive: 0.031 | inactive: 0 | inactive: -0.002 | inactive: 0.023 | inactive: 0.023 | inactive: 0 | inactive: -0.006 | inactive: -0.001 | inactive: 0.041 | inactive: -0.071 | inactive: 0.059 | inactive: 0.162 | inactive: 0.046 | inactive: 0.023 |  | inactive: -0.018 | 
USP38 (UniProt Q8NB14) | inactive: 0.107 | inactive: 0.046 | inactive: 0.048 | inactive: -0.042 | inactive: -0.019 | inactive: 0.013 | inactive: 0.133 | inactive: -0.113 | inactive: 0.009 | inactive: -0.092 | inactive: -0.052 | inactive: -0.149 |  | inactive: 0.193 | inactive: -0.026 | inactive: 0.129 | inactive: -0.103 | inactive: -0.068 | inactive: -0.032 | inactive: 0.037
USP19 isoform 4 (UniProt O94966) | inactive: 0 | inactive: 0.002 |  | inactive: -0.14 | inactive: -0.039 | inactive: -0.055 |  |  | inactive: -0.045 |  |  | inactive: 0.176 | inactive: 0.013 | inactive: -0.036 | inactive: -0.063 | inactive: 0.013 | inactive: 0 |  | inactive: 0.153 | 

2 records picked at random from the list so far, as already listed:
Target | log2 fold change (vemurafenib) | log2 fold change [1] | log2 fold change (barasertib) | log2 fold change [2] | log2 fold change (volasertib) | log2 fold change [3] | log2 fold change [4] | log2 fold change [5] | log2 fold change (saracatinib) | log2 fold change (sotrastaurin) | log2 fold change (alvocidib) | log2 fold change (Tubastatin A) | log2 fold change [6] | log2 fold change (defactinib) | log2 fold change [7] | log2 fold change (encorafenib) | log2 fold change [8] | log2 fold change (alisertib) | log2 fold change [9] | log2 fold change (gefitinib)
VCL (UniProt P18206) | inactive: -0.009 | inactive: -0.003 | inactive: -0.019 | inactive: -0.006 | inactive: 0.024 | inactive: -0.022 | inactive: -0.107 | inactive: 0.05 | inactive: 0.012 | inactive: -0.005 | inactive: -0.023 | inactive: 0.052 | inactive: -0.019 | inactive: -0.005 | inactive: 0.022 | inactive: 0 | inactive: -0.036 | inactive: 0.004 | inactive: 0.004 | inactive: 0.004
UXS1 isoform 2 (UniProt Q8NBZ7) | inactive: 0.005 | inactive: 0.053 | inactive: -0.092 | inactive: 0.031 | inactive: 0 | inactive: -0.002 | inactive: 0.023 | inactive: 0.023 | inactive: 0 | inactive: -0.006 | inactive: -0.001 | inactive: 0.041 | inactive: -0.071 | inactive: 0.059 | inactive: 0.162 | inactive: 0.046 | inactive: 0.023 |  | inactive: -0.018 | 
